Measurements reported in article PMC5386674.
No constants are given. Whether binding was seen depends on the method and setting. In cells and extracts the contact can be indirect. Some results given as binding are weak or reduced against the parent protein; the word gives no strength.

The chains behind the UniProt entries cited, without tags or fusion partners.
UniProt P84022: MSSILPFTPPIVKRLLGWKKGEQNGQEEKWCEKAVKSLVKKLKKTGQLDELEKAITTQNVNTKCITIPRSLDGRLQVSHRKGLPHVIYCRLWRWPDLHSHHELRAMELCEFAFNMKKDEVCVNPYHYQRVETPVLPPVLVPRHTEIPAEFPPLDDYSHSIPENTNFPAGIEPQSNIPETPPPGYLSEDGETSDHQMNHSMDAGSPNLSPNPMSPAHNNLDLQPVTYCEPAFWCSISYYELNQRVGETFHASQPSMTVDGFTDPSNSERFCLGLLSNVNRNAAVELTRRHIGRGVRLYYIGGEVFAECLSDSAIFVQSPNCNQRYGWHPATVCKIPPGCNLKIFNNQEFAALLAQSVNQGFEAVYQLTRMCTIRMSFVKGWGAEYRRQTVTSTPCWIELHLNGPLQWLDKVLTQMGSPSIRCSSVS

Columns and labels:
[1] = target: T1, Hyal-2 (hyaluronidase 2), endogenous human (human (endogenous in THP-1, U937, SK-N-SH, Jurkat, MCF7)) (UniProt Q12891); test: co-IP; MCF7 cells treated with hyaluronidase PH-20 for 1 hr or hyaluronidase-degraded HA; precipitating antibody not stated
T1 sequence: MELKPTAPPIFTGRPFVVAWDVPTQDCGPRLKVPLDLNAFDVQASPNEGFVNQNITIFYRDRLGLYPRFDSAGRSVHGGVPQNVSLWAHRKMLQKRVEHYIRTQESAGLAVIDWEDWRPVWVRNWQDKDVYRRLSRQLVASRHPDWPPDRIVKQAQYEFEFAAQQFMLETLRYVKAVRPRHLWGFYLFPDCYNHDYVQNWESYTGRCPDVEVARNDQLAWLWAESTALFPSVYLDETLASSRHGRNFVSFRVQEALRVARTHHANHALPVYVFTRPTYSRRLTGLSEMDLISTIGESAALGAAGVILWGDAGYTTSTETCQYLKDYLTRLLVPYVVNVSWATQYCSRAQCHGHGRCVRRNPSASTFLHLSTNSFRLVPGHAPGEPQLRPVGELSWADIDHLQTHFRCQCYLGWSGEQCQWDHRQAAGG

[2] = target: Smad3, endogenous human (human (endogenous in SK-N-SH)) (UniProt P84022); test: co-IP; immunoprecipitation with Smad3 antibody; SK-N-SH cells, resting or treated with HA (25 μg/ml, 30 min)
[3] = target: T1, Hyal-2 (hyaluronidase 2), endogenous human (human (endogenous in THP-1, U937, SK-N-SH, Jurkat, MCF7)); test: co-IP; immunoprecipitation with Hyal-2 antibody; cytosolic fraction of SK-N-SH cells and EGFP-expressing COS7 cells, resting or treated with HA (25 μg/ml, 30 min); COS7 also with ectopic EGFP-dn-WW

Measured: binding

B1: WWOX (WW domain-containing oxidoreductase), endogenous human (protein, UniProt Q9NZC7 1-414)
chain: MAALRYAGLDDTDSEDELPPGWEERTTKDGWVYYANHTEEKTQWEHPKTGKRKRVAGDLPYGWEQETDENGQVFFVDHINKRTTYLDPRLAFTVDDNPTKPTTRQRYDGSTTAMEILQGRDFTGKVVVVTGANSGIGFETAKSFALHGAHVILACRNMARASEAVSRILEEWHKAKVEAMTLDLALLRSVQHFAEAFKAKNVPLHVLVCNAATFALPWSLTKDGLETTFQVNHLGHFYLVQLLQDVLCRSAPARVIVVSSESHRFTDINDSLGKLDFSRLSPTKNDYWAMLAYNRSKLCNILFSNELHRRLSPRGVTSNAVHPGNMMYSNIHRSWWVYTLLFTLARPFTKSMQQGAATTVYCAAVPELEGLGGMYFNNCCRCMPSPEAQSEETARTLWALSERLIQERLGSQSG
binds: [1] | [2] | [3]
